Construct, isoform or probe ends are uncertain for at least one entry.
Target: TFAP2C (AP-2C, AP-2gamma) (UniProt Q92754)
Experiment: competition with a labelled probe
Settings: cold competitor vs 140 bp probe, competes more effectively than single-site fragments; protein translated in vitro

The chains behind the UniProt entries cited, without tags or fusion partners. Where a name states a change or a piece, a line headed by the entry shows the natural chain unless it says otherwise.
UniProt Q92754: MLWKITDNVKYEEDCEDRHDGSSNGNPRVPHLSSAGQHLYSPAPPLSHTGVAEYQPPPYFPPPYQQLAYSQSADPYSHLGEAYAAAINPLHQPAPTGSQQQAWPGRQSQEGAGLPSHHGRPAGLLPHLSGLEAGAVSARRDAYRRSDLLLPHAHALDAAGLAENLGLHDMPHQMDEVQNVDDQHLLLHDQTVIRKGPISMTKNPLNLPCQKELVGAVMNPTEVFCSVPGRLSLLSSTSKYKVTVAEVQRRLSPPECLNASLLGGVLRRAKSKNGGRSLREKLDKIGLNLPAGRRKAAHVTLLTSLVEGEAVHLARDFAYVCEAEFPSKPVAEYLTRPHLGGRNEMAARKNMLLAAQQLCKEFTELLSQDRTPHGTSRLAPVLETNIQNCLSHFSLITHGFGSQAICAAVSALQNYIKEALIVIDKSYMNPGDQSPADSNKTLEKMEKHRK

“GGAGGCTTCAGGGTGACTTTGGGAGGAGTGGCTTCCAGAGGAGGAGCAGCTGGGAC (double strand) [ECM1_F2]”: binds.

— PMC3759440
